Data as given in PubChem BioAssay AID743454 (Peter MacCallum Cancer Centre, 2014).
Screen: 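Knock-downs lowering viability or raising caspase 3/7 activity in vorinostat-treated resistant cells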 (primary screen). System: human HCT116-VR colon cancer cells, selected for vorinostat resistance. Knock-down reagent: siRNA pool against human genes, 40 nM siRNA pool. Time to read-out: vorinostat for 24 h, read-out about 72 h after transfection. Challenge: vorinostat at 2.5 µM final. Detection: 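Two measures, CellTiter-Fluor viability and luminescent caspase 3/7 activity, each as fold change against same-plate mock wells, mean of duplicates, then screen-wide robust z-score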. Direction: viability robust z-score: higher = more viable cells than screen typical; caspase robust z-score: higher = more caspase 3/7 activity than screen typical. Hit rule: 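a knock-down is a hit when classed RV1 or RV2 for lowered viability, or CA1 or CA2 for caspase activation; those lethal without drug were dropped; hits were retested singly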.
The deposit covers about 18,000 reagents; below is a random part of them. 450 of them (2.5%) count as active. 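Single biological run; no consistent viability z cut-off exists, so the class columns, not z-scores, define the calls.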

Gene | viability hit class | caspase hit class | viability robust z-score | caspase robust z-score | Outcome
RASIP1 (Ras interacting protein 1) | no change | no change | -3 | 4.83 | inactive
EPHA1 (EPH receptor A1) | no change | no change | -1.9 | 3.15 | inactive
MTMR3 (myotubularin related protein 3) | no change | no change | -0.91 | -0.64 | inactive
NRROS (negative regulator of reactive oxygen species) | no change | no change | -0.05 | -0.49 | inactive
IL18RAP (interleukin 18 receptor accessory protein) | no change | no change | 0.36 | -0.26 | inactive
SLC25A32 | no change | no change | -0.44 | -1.2 | inactive
KRABD2 (KRAB domain containing 2) | no change | no change | 0.32 | -0.76 | inactive
VASP (vasodilator stimulated phosphoprotein) | no change | no change | -0.38 | -1.21 | inactive
CAPN11 (calpain 11) | no change | no change | -0.08 | -0.86 | inactive
FOXN4 (forkhead box N4) | no change | no change | 0.1 | 1.58 | inactive
ACOXL (acyl-CoA oxidase like) | no change | no change | 0.09 | -0.25 | inactive
KLF12 (KLF transcription factor 12) | no change | no change | 1.95 | -0.5 | inactive

3 neighbouring records already listed:
Gene | viability hit class | caspase hit class | viability robust z-score | caspase robust z-score | Outcome
VASP (vasodilator stimulated phosphoprotein) | no change | no change | -0.38 | -1.21 | inactive
CAPN11 (calpain 11) | no change | no change | -0.08 | -0.86 | inactive
FOXN4 (forkhead box N4) | no change | no change | 0.1 | 1.58 | inactive

Continued.
Gene | viability hit class | caspase hit class | viability robust z-score | caspase robust z-score | Outcome
WNT5B (Wnt family member 5B) | no change | no change | 0.18 | -0.8 | inactive
LCP1 (lymphocyte cytosolic protein 1) | no change | no change | 0.18 | 0.71 | inactive
EPOR (erythropoietin receptor) | no change | no change | 0.6 | 0.57 | inactive
BRD4 (bromodomain containing 4) | no change | no change | -0.5 | 2.96 | inactive
PTPRG (protein tyrosine phosphatase receptor type G) | no change | no change | 1.58 | 0.26 | inactive
DNAJB11 (DnaJ heat shock protein family (Hsp40) member B11) | no change | no change | -0.26 | -1.25 | inactive
IL17RA (interleukin 17 receptor A) | no change | no change | -0.7 | 0.84 | inactive
TJP3 (tight junction protein 3) | no change | no change | 0.54 | -1.02 | inactive
ZNF606 (zinc finger protein 606) | no change | no change | -1.34 | 3.22 | inactive
PRX (periaxin) | no change | no change | -0.65 | 1.02 | inactive
FTH1 (ferritin heavy chain 1) | no change | no change | 1.92 | 1.28 | inactive
